The results in this text go back to the supplement of paper PMC10060354, “Discovery of a small molecule ligand of FRS2 that inhibits invasion and tumor growth” (Cellular Oncology, 2022).

Chains of the proteins cited; added tags and fusions are not shown. Lines headed by an entry give the natural chain unless they say otherwise; changes in a name come on top.
UniProt Q8NBJ4: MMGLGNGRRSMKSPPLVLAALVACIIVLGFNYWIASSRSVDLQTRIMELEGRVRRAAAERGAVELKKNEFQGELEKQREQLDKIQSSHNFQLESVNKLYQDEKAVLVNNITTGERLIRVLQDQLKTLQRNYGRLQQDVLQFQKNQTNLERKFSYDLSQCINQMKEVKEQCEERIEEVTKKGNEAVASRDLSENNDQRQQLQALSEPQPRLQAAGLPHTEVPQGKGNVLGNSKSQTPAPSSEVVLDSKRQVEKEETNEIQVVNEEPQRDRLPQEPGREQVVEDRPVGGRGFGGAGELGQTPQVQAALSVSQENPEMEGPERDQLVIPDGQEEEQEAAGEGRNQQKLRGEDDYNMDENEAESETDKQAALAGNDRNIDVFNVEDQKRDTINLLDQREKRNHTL
UniProt E9PAV3, whole entry, looked up: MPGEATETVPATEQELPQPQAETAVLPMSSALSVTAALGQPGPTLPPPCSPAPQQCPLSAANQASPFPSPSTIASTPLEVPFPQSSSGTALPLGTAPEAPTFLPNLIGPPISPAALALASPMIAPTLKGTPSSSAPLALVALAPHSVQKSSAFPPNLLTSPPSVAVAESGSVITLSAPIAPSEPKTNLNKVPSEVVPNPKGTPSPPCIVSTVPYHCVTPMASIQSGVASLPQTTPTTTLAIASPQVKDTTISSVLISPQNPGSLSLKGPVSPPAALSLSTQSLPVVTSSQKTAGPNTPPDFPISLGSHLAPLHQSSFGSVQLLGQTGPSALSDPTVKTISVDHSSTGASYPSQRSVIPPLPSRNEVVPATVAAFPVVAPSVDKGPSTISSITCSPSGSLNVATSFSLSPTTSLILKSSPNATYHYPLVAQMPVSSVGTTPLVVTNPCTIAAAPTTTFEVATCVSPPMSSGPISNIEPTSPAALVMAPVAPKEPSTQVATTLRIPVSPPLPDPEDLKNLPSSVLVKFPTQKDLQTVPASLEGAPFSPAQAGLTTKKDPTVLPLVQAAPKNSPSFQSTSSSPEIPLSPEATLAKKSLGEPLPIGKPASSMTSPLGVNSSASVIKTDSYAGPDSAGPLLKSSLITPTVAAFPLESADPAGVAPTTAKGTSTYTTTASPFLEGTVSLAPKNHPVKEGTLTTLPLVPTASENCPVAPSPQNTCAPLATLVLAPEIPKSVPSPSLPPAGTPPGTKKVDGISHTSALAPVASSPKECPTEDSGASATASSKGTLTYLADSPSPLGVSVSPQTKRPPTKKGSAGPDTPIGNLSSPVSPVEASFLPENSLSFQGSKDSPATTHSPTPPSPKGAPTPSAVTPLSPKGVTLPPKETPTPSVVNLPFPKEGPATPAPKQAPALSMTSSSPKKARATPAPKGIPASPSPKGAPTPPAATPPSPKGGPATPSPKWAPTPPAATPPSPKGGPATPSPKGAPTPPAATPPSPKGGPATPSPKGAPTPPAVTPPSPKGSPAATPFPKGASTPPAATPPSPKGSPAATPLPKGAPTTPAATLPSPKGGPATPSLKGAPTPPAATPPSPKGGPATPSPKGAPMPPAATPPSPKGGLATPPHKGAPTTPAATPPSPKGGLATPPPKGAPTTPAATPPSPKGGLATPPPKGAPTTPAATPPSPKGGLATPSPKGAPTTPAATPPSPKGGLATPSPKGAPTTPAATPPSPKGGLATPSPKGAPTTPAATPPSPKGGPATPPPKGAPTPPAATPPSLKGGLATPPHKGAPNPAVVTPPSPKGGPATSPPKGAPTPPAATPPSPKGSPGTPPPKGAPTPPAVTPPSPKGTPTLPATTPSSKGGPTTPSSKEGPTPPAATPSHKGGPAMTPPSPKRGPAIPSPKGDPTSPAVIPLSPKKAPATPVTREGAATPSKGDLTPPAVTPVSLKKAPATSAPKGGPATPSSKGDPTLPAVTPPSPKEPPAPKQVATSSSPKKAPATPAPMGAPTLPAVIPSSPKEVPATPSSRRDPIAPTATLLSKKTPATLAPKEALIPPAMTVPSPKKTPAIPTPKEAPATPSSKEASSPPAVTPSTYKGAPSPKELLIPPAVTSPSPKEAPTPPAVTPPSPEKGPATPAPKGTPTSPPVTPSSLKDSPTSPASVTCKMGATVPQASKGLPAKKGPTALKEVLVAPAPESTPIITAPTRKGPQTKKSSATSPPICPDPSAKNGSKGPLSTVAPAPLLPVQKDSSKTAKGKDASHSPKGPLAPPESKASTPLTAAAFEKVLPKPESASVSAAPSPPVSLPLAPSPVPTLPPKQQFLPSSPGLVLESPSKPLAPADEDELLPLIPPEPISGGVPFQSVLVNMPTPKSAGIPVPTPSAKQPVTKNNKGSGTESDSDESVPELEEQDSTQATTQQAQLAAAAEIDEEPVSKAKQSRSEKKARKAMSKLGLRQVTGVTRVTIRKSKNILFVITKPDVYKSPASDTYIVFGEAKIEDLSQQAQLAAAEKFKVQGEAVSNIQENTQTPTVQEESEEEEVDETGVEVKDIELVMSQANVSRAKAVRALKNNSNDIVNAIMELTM
UniProt Q9BVG9: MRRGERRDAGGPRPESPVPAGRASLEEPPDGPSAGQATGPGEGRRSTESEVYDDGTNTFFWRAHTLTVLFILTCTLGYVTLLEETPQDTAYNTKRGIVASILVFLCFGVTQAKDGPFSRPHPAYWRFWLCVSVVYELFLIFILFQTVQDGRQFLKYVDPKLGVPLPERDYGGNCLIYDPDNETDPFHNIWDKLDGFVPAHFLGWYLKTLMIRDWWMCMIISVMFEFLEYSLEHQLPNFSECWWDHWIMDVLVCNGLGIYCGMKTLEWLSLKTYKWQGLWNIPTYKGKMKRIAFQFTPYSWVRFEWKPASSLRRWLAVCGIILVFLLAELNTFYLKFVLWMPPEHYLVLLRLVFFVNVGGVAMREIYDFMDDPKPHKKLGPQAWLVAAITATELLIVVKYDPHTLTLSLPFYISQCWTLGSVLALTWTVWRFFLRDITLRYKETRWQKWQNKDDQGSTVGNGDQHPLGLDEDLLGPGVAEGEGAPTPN
UniProt Q8IWL3: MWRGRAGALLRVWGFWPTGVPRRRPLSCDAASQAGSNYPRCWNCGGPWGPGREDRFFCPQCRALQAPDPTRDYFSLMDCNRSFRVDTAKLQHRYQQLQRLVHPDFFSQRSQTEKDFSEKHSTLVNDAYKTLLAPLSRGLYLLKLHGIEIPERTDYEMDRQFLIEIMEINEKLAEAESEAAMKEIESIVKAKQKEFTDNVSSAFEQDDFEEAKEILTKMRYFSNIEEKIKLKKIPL
UniProt O75569: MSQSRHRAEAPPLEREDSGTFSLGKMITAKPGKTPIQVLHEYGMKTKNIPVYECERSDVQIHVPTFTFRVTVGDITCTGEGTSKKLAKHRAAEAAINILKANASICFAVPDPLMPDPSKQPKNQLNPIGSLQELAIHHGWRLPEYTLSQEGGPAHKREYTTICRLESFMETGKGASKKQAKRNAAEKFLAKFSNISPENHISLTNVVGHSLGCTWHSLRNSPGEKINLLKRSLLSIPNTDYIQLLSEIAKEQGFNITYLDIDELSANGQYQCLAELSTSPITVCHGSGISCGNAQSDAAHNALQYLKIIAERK
UniProt Q9NYV4, whole entry, looked up: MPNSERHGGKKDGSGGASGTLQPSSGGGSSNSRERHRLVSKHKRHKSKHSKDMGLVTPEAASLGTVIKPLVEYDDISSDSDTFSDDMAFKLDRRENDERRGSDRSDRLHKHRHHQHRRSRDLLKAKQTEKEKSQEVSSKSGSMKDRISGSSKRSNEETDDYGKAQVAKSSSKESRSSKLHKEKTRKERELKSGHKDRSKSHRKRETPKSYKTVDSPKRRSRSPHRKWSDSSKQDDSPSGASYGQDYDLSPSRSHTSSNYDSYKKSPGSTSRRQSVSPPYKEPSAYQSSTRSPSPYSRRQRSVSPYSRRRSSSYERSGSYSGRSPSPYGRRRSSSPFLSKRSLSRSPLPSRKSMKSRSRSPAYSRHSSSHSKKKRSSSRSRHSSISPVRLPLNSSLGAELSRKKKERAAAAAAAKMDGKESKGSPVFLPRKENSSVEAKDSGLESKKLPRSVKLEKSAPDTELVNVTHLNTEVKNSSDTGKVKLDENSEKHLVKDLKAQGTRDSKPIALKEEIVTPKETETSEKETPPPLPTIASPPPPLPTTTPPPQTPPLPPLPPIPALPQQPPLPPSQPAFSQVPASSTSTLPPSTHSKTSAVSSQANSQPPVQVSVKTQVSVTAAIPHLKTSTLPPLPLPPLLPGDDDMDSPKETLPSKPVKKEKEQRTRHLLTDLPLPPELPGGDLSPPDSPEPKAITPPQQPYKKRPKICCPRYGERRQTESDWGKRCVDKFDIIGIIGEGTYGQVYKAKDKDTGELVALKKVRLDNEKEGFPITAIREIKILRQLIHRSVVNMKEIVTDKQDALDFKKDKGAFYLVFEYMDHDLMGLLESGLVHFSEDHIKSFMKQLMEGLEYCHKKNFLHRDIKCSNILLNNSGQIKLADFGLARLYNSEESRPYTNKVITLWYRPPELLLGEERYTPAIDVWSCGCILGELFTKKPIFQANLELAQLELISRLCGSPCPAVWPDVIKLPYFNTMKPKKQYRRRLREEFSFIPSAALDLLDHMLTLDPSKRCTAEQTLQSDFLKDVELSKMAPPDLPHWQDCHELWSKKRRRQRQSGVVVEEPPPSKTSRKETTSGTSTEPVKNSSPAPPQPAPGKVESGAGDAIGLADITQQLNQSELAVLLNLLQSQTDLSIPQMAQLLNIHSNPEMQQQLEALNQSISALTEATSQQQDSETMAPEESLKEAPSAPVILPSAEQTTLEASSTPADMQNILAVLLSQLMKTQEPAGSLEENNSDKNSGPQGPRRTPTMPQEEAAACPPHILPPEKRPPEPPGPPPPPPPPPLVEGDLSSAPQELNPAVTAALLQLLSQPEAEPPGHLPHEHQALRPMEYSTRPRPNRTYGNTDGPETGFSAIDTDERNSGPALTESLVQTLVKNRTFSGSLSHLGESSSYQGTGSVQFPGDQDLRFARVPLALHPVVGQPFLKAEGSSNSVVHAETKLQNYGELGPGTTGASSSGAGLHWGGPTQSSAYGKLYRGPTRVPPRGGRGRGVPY
UniProt Q9H307: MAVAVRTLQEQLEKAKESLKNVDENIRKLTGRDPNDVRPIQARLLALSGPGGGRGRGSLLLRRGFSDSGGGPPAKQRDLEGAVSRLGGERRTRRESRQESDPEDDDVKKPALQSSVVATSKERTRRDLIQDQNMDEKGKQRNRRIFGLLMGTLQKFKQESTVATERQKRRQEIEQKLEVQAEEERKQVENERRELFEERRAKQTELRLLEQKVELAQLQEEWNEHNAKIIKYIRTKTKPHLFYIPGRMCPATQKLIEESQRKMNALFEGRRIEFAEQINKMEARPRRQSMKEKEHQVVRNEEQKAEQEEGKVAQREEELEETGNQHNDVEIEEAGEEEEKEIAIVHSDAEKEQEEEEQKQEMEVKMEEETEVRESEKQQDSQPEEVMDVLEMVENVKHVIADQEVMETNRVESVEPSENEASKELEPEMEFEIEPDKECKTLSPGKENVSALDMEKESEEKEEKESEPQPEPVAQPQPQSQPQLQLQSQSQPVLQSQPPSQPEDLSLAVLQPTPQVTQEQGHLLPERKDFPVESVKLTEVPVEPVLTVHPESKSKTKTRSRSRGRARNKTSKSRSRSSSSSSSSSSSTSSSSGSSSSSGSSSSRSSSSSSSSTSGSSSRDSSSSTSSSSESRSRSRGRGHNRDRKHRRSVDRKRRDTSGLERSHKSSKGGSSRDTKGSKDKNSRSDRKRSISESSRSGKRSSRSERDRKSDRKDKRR
UniProt Q13572: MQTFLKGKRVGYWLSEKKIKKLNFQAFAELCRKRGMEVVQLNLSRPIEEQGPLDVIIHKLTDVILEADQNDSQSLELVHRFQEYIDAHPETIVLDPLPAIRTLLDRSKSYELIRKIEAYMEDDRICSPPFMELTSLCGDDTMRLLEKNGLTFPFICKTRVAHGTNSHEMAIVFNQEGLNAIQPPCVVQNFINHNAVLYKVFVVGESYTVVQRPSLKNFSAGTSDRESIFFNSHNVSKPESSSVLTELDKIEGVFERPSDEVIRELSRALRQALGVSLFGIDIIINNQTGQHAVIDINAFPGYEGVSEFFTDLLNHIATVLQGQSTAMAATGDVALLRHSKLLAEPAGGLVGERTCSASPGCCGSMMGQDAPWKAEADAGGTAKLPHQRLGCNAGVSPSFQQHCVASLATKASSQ
UniProt Q9NS86: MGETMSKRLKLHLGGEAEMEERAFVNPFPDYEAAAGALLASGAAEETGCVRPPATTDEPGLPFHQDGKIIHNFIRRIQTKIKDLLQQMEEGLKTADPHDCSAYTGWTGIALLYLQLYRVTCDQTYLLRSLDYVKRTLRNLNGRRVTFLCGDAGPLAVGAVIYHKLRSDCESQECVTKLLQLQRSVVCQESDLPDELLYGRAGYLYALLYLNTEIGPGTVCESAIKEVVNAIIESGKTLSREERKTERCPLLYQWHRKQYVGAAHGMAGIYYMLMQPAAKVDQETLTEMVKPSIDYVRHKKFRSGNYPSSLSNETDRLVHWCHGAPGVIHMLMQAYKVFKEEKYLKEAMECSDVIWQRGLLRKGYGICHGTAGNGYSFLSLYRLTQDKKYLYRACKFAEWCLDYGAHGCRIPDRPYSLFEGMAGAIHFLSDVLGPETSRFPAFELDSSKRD

Repeats are few or missing, and single values can be far off.

Compound in the assay: [O-][N+](C(C1=C(C(O)=C2)NC(C(C=C3)=CC=C3Cl)C4C1C=CC4)=C2Cl)=O
Nature of the assay: melting temperature shift (compound 7 minus DMSO); higher = compound stabilises the protein. Particulars: 10 µM. Here is the method: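 Thermal proteome profiling (TMT mass spectrometry) in intact DAOY medulloblastoma cells or DAOY lysates treated with 10 µM compound 7 or DMSO, heated at 10 temperatures from 40.5 to 73.8 °C for 3 min. Melting curves were fitted with the Bioconductor TPP package, and the melting point difference between compound and vehicle is reported per protein (single curve per condition).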

Setting [1] is: system: DAOY cell lysate, treatment time: 20 min, 4 °C.
Where [2] appears, read: system: intact DAOY cells, treatment time: 90 min, 37 °C.

With GPRIN1 (UniProt Q7Z2K8), under setting [1], the melting temperature shift stood at 0.946 °C.
As to EIF3B (UniProt P55884), the melting temperature shift runs as follows: under setting [1], -0.259 °C; under setting [2], 0.0377 °C.
On the same counts, the results for UBE2C (UniProt O00762) are -1.17 °C and -0.115 °C.
Turning to GOLM1 (UniProt Q8NBJ4), under setting [1], the melting temperature shift is 0.733 °C.
As to DNAJB4 (UniProt Q9UDY4), the melting temperature shift under setting [1] was -0.65 °C and the melting temperature shift under setting [2] was -0.193 °C.
Regarding IGBP1 (UniProt P78318), the melting temperature shift under setting [1] was -1.23 °C and the melting temperature shift under setting [2] is -0.884 °C.
In the case of DAB2 (UniProt P98082), the melting temperature shift is -1.03 °C under setting [1] and -0.0489 °C under setting [2].
For LRCH3 (UniProt Q96II8), the melting temperature shift is, setting by setting: under setting [1], -1.15 °C; under setting [2], 3.46 °C.
The like results for UniProt P12110 were, in that order, -0.0814 °C and 0.416 °C.
As to UniProt E9PAV3, under setting [1], the melting temperature shift is -1.24 °C.
Turning to LSM12 (UniProt Q3MHD2), the melting temperature shift was -0.176 °C under setting [1] and 0.163 °C under setting [2].
As for UniProt O95164, the melting temperature shift under setting [1] is -0.529 °C and the melting temperature shift under setting [2] is -1.17 °C.
In the case of EXT2 (UniProt Q93063), the melting temperature shift under setting [1] was found to be 1.26 °C and the melting temperature shift under setting [2] was 0.00852 °C.
As to FAM175B (UniProt Q15018), the melting temperature shift under setting [1] was -1.37 °C and the melting temperature shift under setting [2] was -0.198 °C.
Regarding UniProt Q13487, the melting temperature shift under setting [2] amounted to 0.0274 °C.
Turning to DHX37 (UniProt Q8IY37), the melting temperature shift runs as follows: under setting [1], -0.0581 °C; under setting [2], -2.12 °C.
The like results for PTDSS2 (UniProt Q9BVG9) were, in that order, -0.416 °C and 0.961 °C.
Regarding TRAPPC11 (UniProt Q7Z392), the melting temperature shift is, setting by setting: under setting [1], -0.307 °C; under setting [2], -0.257 °C.
Consider UniProt Q16878, for which the melting temperature shift under setting [2] was -0.242 °C.
Take HSCB (UniProt Q8IWL3): the melting temperature shift was 0.148 °C under setting [1] and -1.85 °C under setting [2].
With PRKRA (UniProt O75569), the melting temperature shift under setting [1] was -3.16 °C.
With UniProt Q9NYV4, the melting temperature shift is -0.611 °C under setting [1] and -0.16 °C under setting [2].
For TIMMDC1 (UniProt Q9NPL8), the melting temperature shift under setting [1] amounted to 0.491 °C.
With UniProt Q99549, the melting temperature shift under setting [2] is 0.885 °C.
ADNP (UniProt Q9H2P0): the melting temperature shift is, setting by setting: under setting [1], 0.605 °C; under setting [2], 0.141 °C.
On the same counts, the results for UniProt Q96GF1 are -5.13 °C and -0.294 °C.
As for UniProt Q96FF9, the melting temperature shift under setting [1] came to 0.746 °C.
Consider UniProt Q8N4U5, for which, under setting [2], the melting temperature shift was -0.834 °C.
Take PNN (UniProt Q9H307): the melting temperature shift is, setting by setting: under setting [1], 0.788 °C; under setting [2], 3.5 °C.
Consider ITPK1 (UniProt Q13572), for which the melting temperature shift is 1.07 °C under setting [1] and -1.53 °C under setting [2].
Take UniProt P15531: the melting temperature shift under setting [2] is -2.65 °C.
Regarding UniProt Q14533, the melting temperature shift under setting [1] is -1.69 °C.
For the target LANCL2 (UniProt Q9NS86), the melting temperature shift by setting is: under setting [1], -0.748 °C; under setting [2], -0.496 °C.
For PREPL (UniProt Q4J6C6), the melting temperature shift under setting [1] amounted to 0.223 °C and the melting temperature shift under setting [2] came to 0.153 °C.
Regarding UniProt O00160, the melting temperature shift under setting [2] is -1.2 °C.
With UBLCP1 (UniProt Q8WVY7), the melting temperature shift is -0.517 °C under setting [1] and 0.0796 °C under setting [2].
For the target UniProt Q8N4A0, under setting [2], the melting temperature shift amounted to 1.46 °C.
As for DNAJA2 (UniProt O60884), the melting temperature shift is, setting by setting: under setting [1], -0.254 °C; under setting [2], 0.439 °C.
With UBFD1 (UniProt O14562), the melting temperature shift runs as follows: under setting [1], -0.749 °C; under setting [2], -0.0202 °C.
